Experiment [1] concerns the target T1, Cor1TAP (S. cerevisiae) (UniProt P07256).
T1 sequence: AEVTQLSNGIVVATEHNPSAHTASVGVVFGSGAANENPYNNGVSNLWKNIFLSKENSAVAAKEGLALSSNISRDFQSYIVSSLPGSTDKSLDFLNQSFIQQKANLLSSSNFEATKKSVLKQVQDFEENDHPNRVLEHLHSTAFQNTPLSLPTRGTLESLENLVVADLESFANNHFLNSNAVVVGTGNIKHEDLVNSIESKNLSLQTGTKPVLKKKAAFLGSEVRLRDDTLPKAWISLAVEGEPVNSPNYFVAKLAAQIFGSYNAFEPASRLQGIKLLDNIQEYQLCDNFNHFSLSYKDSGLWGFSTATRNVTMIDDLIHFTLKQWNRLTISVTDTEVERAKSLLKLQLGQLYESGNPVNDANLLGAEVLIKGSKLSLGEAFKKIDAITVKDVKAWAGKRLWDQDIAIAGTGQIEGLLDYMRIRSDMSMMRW
The experiment is described as follows: affinity purification with mass spectrometry; SILAC: tagged strain (light) against wild type (heavy); IgG affinity purification from digitonin-solubilised mitochondria, trypsin digest, LC/MS (LTQ-Orbitrap XL), three replicates.

By UniProt entry, the sequences of proteins in these tests, tags left out. Where a name states a change or a piece, a line headed by the entry shows the natural chain unless it says otherwise.
UniProt P40098: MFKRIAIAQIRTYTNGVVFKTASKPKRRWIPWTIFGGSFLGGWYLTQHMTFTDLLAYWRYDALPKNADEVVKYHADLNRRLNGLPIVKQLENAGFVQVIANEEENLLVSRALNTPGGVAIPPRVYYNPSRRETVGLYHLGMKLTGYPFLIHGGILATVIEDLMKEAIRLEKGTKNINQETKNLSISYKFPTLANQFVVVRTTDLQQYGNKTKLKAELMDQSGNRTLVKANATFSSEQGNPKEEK
UniProt P38172: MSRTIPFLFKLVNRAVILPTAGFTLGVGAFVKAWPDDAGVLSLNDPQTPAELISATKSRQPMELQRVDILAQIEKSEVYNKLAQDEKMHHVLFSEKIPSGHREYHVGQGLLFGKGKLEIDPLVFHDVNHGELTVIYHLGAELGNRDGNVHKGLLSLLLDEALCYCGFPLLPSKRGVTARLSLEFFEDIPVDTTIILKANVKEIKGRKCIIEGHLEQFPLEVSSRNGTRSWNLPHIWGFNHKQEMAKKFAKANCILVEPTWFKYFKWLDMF

The target of experiment [2] is Mar26_(ProtA) (S. cerevisiae) (UniProt P40098). Described as above.

No constants are given. Whether binding was seen depends on the method and setting. Binding seen in cells or lysates may run through a third protein. These calls come from enrichment with a bait or labelling near it, and not all partners need be listed.

As for Mrx3 (from UniProt P38172), the binding result in experiment [1] and in experiment [2] was “binds” throughout.
Consider Mar26 (from UniProt P40098), for which the binding entry in experiment [1] is given as “binds”.
